Our source for the survivor count and T/C values is PubChem BioAssay AID330 (DTP/NCI, 2004).

The test system of the assay is P388 leukemia ip, CD2F1 mice, survival T/C. Description: NCI In Vivo Anticancer Drug Screen. Data for tumor model P388 Leukemia (intraperitoneal) in CD2F1 (CDF1) mice. The note with it: T/C endpoint: median survival time, higher T/C = longer survival.

The list does not hold the whole screen: it is rich in T/C values a quarter to a half above the control, in often repeated tests (any T/C) and in doses without a T/C. Other doses and runs of a compound stand elsewhere. T/C: endpoint of the treated group in % of that of the vehicle group. Some entries give survivors of the animals treated and no T/C: the source files T/C as zero there, which appears to mark a toxic dose or a test without result, not a measured value. Some survivor counts are full or nearly so, which does not show that the dose was tolerated: the source hardly ever lists a survival T/C far under the control, and the zero likely stands for such cases as well. Survivors were counted at the toxicity check, usually on the fifth day, unless a day is given; later deaths do not show. Schedules are NCI's codes, taken here to give the interval after Q, in days (D) or hours (H), and the number of doses after X. For survival time, the PubChem record calls one and a half times the control and up active, and a quarter to a half above the control has no call in these data; cut-offs in other NCI protocols can differ.

For `COc1cc2nc3occc3c(OC)c2cc1OCC(O)C(C)(C)O` (stereo not drawn), the survivor count is given as 6 of 6 (dose: 50.0 mg/kg/injection, schedule: Q01DX005 (ip), vehicle: distilled water + Tween-80); 6 of 6 (dose: 100.0 mg/kg/injection, schedule: Q01DX005 (ip), vehicle: distilled water + Tween-80); 0 of 6 (dose: 200.0 mg/kg/injection, schedule: Q01DX005 (ip), vehicle: distilled water + Tween-80).
Regarding `COc1ccc(C(=O)OC2(C)CC(C)(C)N=[N+]2[O-])cc1` (stereo not drawn), the T/C (dose: 100.0 mg/kg/injection, schedule: Q01DX009 (ip), vehicle: other) was 125 % of control.
On to `BrCc1ccccc1C[P+](c1ccccc1)(c1ccccc1)c1ccccc1`, for which the survivor count (dose: 6.25 mg/kg/injection, schedule: Q01DX009 (ip), vehicle: saline) was 5 of 6.
As to `O=C1NC(=O)C(F)[CH]([Ge](=[O])[O][Ge](=[O])[CH]2NC(=O)NC(=O)C2F)N1` (stereo not drawn), where the note is “dose: 400.0 mg/kg/injection, schedule: Q04DX002 (ip), vehicle: water”, the survivor count is given as 0 of 6.
For the compound `CCN(CC)CCOc1ccc(Cl)c(C)c1`, the survivor count (dose: 200.0 mg/kg/injection, schedule: Q01DX005 (ip), vehicle: saline with Tween-80) is recorded as 2 of 6.
With `CCOC(=O)C1=C(C(=O)c2ccc(C)cc2)C(c2ccc([N+](=O)[O-])cc2)C(C(=O)c2ccc(C)cc2)=C(C(=O)OCC)N1`, the survivor count (dose: 240.0 mg/kg/injection, schedule: Q01DX005 (ip), vehicle: saline with Tween-80) is listed as 6 of 6.
